In US20230117831A1, “MULTI-FUNCTIONAL CHIMERIC MOLECULES” (THE BROAD INSTITUTE, INC., priority 2020, published 2023):
These are yes or no findings as the source states them, for the method shown. Some results given as binding are weak or reduced against the parent protein; the word gives no strength.

The chains behind the UniProt entries cited, without tags or fusion partners. Where a name states a change or a piece, a line headed by the entry shows the natural chain unless it says otherwise.
UniProt Q13131: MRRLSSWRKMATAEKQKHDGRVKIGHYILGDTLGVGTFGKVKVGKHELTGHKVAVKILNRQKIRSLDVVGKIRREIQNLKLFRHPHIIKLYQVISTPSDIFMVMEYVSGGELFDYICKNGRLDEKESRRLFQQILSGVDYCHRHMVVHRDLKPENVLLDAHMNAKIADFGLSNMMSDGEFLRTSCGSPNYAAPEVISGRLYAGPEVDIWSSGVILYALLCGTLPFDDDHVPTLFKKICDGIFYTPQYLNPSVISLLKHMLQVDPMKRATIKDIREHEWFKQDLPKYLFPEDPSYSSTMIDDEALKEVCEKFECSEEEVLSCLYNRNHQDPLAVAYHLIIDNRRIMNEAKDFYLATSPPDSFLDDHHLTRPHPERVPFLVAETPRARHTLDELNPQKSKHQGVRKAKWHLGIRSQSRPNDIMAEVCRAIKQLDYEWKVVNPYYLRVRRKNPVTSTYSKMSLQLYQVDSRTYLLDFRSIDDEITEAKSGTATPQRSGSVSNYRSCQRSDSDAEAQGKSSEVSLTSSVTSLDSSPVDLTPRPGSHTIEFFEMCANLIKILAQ

Columns and labels:
BRD3 = experiment: AlphaScreen ternary complex assay with His-tagged AMPK and BRD3-GST; the concentration of the bridging compound PHICS1 is varied
BRD2 = experiment: AlphaScreen ternary complex assay with His-tagged AMPK and BRD2-GST; the concentration of the bridging compound PHICS1 is varied

Which binding (BRD3) does the source give for “AMPK α1β1γ1-His tag (SignalChem P47-10H) (from UniProt Q13131 1-559; Q9Y478 1-270; P54619 1-331) (enzyme)” here?
The binding was “binds”.

What about the binding (BRD2) of the same substance?
Its binding is “binds”.
